Reference: US7858646B2, “Potentiators of glutamate receptors” (Eli Lilly and Company, priority 2004, dated 2010)
Some of these results come from one statement about several compounds together.

These compounds were tested on Male Harlan Sprague-Dawley rats (assay: Animal model of dural plasma protein extravasation (PPE)). Conditions: p.o.; rat; electrical stimulation of trigeminal ganglion one hour post-dosing.
Format: in vivo
For `CC(=O)c1ccc(OCc2ccc(Oc3cc(-c4nnn[nH]4)ccn3)cc2)c(C)c1O` [Example 21, 1-(2-Hydroxy-3-methyl-4-{4-[4-(1H-tetrazol-5-yl)-pyridin-2-yloxy]-benzyloxy}-phenyl)-ethanone], the “extravasation in the dura, ID100” value was “less than or equal to 0.1 mg/kg”. With `CC(=O)c1ccc(OCc2ccc(Oc3cccc(-c4nnn[nH]4)c3)cc2)c(C)c1O` [Example 22, 1-(2-Hydroxy-3-methyl-4-{4-[3-(1H-tetrazol-5-yl)-phenoxy]-benzyloxy}-phenyl)-ethanone] the “extravasation in the dura, ID100” value was “less than or equal to 0.1 mg/kg”. With `CC(=O)c1ccc(OCc2cccc(Oc3cc(-c4nn[nH]n4)ccn3)c2)c(C(F)(F)F)c1O` [Example 27, 1-(2-Hydroxy-4-{3-[4-(2H-tetrazol-5-yl)-pyridin-2-yloxy]-benzyloxy}-3-trifluoromethyl-phenyl)-ethanone] the “extravasation in the dura, ID100” value was “less than or equal to 0.1 mg/kg”. `CCCc1c(OCc2cccc(Sc3cc(C(=O)O)ccn3)c2)ccc(C(C)=O)c1O` [Example 84, 6-(3-((4-acetyl-3-hydroxy-2-propylphenoxy)methyl)phenylthio)isonicotinic acid] was tested, and the “extravasation in the dura, ID100” value was “less than or equal to 0.1 mg/kg”.
